The list shows a part of the results.
Compound: Cc1cc(ccc1-c1ccccc1)C(=O)N1CCCN(CC1)C(=O)CCl [compound 10]
Assay: probe-labelled cysteine peptide fold change vs DMSO (competition) (log2 fold change); higher = less target engagement (more negative = stronger competition)
Conditions: THP-1, incubation time: 4 h
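Note: competitive profiling in live THP-1 cells: cysteine peptides tagged with an iodoacetamide desthiobiotin (IA-DTB) probe, intensity after compound treatment relative to DMSO-treated cells.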

Sequences of proteins named here, by UniProt entry; tags and fusion partners are left off. A change or cut given only in a name is not applied to a line headed by its entry.
UniProt Q9H9D4: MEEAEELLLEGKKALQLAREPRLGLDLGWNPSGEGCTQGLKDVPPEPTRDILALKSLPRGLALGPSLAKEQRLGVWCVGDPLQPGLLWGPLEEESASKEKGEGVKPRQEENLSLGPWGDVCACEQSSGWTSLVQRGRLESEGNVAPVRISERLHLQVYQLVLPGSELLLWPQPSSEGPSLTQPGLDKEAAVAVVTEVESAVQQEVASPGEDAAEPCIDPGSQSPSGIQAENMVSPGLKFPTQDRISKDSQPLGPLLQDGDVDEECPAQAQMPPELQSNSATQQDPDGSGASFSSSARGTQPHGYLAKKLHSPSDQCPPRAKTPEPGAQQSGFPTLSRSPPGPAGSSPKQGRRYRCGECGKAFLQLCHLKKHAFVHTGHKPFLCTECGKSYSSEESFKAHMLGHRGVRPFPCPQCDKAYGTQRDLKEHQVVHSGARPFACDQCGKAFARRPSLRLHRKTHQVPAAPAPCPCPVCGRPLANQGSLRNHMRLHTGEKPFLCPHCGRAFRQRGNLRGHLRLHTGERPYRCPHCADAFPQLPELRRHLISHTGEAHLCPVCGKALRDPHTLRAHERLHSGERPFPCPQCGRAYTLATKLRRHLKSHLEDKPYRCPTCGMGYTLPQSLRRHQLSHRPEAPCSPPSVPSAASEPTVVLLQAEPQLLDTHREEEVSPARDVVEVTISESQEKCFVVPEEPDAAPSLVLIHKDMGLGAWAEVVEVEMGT
UniProt Q9H582: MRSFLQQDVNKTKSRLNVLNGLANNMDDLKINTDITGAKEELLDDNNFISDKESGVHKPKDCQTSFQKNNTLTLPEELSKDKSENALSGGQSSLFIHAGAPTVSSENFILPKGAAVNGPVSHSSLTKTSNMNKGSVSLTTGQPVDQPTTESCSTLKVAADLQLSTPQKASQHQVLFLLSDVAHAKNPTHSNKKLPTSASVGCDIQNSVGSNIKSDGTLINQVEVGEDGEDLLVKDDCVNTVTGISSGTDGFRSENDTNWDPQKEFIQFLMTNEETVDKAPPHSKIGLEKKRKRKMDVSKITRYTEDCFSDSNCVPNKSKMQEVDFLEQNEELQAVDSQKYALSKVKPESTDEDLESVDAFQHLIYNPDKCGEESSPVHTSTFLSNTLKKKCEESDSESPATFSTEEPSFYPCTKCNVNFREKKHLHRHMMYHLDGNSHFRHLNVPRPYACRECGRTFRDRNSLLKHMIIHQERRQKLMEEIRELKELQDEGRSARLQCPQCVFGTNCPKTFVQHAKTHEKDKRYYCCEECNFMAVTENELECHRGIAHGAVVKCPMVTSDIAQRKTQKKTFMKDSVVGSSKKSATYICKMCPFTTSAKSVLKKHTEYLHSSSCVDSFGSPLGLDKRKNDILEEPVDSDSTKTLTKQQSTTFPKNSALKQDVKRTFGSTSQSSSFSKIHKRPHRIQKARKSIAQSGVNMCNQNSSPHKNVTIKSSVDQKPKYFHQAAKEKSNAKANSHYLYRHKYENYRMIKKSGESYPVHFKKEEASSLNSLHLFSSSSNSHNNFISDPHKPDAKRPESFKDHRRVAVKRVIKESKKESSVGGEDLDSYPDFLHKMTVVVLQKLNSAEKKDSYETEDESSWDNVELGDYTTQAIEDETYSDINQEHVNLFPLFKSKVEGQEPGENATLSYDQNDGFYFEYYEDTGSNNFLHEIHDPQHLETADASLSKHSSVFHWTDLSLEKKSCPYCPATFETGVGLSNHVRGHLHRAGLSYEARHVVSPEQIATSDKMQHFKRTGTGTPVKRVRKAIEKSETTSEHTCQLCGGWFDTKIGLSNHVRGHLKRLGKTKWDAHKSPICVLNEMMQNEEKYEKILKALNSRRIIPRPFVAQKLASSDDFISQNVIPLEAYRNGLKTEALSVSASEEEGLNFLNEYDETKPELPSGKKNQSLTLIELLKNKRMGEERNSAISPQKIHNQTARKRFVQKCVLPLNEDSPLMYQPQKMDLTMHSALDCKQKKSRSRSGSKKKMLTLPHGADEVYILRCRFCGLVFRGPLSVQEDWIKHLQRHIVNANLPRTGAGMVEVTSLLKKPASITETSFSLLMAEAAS
UniProt Q96KR1: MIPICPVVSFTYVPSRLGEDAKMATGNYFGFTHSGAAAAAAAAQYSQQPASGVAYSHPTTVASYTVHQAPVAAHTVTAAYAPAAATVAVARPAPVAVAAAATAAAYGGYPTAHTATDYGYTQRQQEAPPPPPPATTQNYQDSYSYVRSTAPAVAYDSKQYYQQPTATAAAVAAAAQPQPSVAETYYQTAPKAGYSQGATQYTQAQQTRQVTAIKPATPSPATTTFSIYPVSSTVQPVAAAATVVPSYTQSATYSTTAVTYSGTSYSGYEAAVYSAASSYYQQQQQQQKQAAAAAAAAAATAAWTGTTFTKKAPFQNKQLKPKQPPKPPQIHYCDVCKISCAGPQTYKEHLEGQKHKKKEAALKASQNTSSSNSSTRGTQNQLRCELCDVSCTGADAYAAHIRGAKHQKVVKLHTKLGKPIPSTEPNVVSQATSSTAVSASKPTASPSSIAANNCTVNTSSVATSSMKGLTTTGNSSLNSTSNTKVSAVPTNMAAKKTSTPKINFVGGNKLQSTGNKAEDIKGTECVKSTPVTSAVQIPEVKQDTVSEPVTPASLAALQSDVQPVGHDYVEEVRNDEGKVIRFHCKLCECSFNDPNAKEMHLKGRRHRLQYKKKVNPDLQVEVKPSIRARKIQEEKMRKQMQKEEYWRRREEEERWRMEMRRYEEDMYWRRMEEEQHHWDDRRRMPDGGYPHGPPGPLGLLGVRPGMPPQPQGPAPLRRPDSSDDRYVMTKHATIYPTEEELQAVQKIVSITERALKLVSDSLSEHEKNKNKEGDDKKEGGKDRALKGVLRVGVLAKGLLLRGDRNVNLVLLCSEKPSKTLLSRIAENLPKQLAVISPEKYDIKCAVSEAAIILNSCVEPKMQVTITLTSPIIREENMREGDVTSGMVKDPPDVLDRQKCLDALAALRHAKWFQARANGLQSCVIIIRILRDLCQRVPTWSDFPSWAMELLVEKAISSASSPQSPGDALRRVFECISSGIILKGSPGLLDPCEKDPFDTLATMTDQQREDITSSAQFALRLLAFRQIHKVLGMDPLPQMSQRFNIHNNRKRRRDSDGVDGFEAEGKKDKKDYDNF
UniProt Q969S3: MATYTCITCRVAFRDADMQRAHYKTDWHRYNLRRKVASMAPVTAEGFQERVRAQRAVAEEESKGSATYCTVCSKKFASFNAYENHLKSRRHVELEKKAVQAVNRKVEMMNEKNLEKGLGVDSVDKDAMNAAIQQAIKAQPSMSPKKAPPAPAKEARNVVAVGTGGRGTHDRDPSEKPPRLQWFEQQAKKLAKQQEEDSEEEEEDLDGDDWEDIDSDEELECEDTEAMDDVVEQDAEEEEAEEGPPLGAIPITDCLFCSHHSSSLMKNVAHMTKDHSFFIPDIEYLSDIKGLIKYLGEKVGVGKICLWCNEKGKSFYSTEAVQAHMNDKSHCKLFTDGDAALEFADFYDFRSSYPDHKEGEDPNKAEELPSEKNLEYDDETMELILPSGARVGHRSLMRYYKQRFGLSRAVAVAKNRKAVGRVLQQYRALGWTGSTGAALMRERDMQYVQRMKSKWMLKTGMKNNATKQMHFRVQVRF
UniProt Q8N1G0: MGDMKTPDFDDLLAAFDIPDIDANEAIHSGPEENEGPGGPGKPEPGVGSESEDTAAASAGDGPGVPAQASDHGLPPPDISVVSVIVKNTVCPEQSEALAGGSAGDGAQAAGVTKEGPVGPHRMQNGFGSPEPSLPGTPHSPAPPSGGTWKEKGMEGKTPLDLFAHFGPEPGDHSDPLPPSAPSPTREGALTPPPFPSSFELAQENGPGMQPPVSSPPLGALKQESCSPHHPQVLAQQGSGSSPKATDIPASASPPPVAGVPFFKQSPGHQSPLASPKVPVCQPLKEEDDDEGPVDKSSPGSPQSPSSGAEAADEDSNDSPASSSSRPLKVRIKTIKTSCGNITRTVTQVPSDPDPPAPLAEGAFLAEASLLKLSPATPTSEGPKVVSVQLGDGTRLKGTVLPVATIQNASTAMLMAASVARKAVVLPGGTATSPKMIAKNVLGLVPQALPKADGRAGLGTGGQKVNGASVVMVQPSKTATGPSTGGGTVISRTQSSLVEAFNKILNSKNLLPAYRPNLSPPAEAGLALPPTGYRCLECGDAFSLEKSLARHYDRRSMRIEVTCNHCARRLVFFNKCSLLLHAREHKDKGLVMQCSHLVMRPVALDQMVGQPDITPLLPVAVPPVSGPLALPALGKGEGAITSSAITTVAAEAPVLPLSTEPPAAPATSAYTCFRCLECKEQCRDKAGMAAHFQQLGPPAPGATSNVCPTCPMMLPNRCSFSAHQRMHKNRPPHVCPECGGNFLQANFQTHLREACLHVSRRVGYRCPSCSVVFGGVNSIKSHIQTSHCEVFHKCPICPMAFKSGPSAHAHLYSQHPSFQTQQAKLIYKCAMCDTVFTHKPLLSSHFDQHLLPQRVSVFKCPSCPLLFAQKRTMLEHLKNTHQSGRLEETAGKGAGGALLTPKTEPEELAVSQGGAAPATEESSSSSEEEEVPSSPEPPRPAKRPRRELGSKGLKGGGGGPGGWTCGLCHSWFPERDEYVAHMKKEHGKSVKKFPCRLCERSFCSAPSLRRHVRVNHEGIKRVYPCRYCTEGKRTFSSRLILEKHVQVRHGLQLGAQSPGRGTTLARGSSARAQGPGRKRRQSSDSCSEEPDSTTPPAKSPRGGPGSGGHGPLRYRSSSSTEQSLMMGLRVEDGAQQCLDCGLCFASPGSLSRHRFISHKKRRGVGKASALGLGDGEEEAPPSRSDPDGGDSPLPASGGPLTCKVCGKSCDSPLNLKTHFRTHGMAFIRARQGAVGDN
UniProt Q5SVZ6: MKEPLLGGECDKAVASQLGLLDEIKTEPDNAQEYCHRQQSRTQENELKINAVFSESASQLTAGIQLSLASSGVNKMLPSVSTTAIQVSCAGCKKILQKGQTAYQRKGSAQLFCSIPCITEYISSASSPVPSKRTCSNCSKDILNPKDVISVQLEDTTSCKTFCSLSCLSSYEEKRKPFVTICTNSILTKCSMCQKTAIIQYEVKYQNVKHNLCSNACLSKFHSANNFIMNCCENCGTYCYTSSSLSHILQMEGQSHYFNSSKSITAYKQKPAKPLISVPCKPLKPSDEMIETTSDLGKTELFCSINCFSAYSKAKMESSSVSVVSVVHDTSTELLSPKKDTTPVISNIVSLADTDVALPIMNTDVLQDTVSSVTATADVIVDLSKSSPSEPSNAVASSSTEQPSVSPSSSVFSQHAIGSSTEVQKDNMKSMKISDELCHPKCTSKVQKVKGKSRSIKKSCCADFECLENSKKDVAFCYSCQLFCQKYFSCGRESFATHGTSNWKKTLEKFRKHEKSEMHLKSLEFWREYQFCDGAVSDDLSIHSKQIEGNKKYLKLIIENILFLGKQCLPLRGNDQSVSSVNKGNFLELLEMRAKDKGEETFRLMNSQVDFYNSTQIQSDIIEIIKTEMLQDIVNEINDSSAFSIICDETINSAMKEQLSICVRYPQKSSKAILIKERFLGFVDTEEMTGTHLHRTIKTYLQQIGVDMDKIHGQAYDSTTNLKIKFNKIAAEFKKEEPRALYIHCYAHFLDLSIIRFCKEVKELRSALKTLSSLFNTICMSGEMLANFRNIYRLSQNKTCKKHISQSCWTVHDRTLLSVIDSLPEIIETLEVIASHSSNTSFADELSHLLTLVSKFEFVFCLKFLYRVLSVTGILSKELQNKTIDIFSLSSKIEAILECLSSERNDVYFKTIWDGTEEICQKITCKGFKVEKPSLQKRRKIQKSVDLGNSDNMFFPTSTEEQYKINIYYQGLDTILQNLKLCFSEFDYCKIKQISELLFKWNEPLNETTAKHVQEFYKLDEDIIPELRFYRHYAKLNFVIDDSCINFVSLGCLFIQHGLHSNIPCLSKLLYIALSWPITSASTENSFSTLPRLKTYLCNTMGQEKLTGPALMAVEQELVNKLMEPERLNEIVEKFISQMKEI
UniProt Q5BKZ1: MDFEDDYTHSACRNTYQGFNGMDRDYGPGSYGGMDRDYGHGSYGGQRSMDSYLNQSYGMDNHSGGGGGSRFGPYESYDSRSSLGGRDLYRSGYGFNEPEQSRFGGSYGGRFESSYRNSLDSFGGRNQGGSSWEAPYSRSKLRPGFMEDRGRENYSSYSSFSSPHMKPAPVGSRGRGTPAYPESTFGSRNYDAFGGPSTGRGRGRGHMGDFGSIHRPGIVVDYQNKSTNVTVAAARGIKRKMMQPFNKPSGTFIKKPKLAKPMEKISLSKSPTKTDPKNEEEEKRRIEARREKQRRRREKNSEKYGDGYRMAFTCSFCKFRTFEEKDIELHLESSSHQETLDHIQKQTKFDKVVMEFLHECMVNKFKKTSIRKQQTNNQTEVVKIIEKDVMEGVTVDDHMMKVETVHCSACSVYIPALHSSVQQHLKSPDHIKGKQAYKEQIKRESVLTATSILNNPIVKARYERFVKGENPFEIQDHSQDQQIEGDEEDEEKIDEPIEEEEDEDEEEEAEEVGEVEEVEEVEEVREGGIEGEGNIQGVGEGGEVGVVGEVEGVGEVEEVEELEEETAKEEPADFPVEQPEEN

Target | probe-labelled cysteine peptide fold change (10 µM) | probe-labelled cysteine peptide fold change (50 µM)
ZNF408_Q9H9D4_685_CFVVPEEPDAAPSLVLIHK (UniProt Q9H9D4) | -0.15 | 0.139
ZNF598_Q86UK7_835_QQELLSAHTDFCNR (UniProt Q86UK7) | 0.0235 | -0.119
ZNF521_Q96K83_537_QVHCDLSGSR (UniProt Q96K83) | -0.0949 | -0.342
ZNF629_Q9UEG4_214_CFSWSSNLVQHQR (UniProt Q9UEG4) | -0.0842 | 0.138
ZMYM3_Q14202_1048_LVLSESCSR (UniProt Q14202) | -0.00773 | -0.0329
ZNF644_Q9H582_202_KLPTSASVGCDIQNSVGSNIK (UniProt Q9H582) | -0.312 | -0.167
ZNF318_Q5VUA4_1740_SELDLGEPGPPGVEPPPQLLDIQCK (UniProt Q5VUA4) | -0.112 | -0.116
ZNF114_Q8NC26_51_NLAFIDWATPCK (UniProt Q8NC26) | -0.0397 | 0.0891
ZNF292_O60281_2260_CDCEGCDR (UniProt O60281) | 0.0987 | 0.272
ZNF646_O15015_1193_GCQTEASSERPFSCEVCGR (UniProt O15015) | -0.00431 | 0.0379
ZNF195_O14628_195_DWESLDECK (UniProt O14628) | -0.236 | -0.776
ZFR_Q96KR1_384_CELCDVSCTGADAYAAHIR (UniProt Q96KR1) | -0.0197 | 0.596
ZNF740_Q8NDX6_9_AQASLLACEGLAGVSLVPTAASK (UniProt Q8NDX6) | 0.0108 | -0.0293
ZFPL1_O95159_230_DDDRTPGLHGDCDDDK (UniProt O95159) | -0.305 | -0.37
ZNF622_Q969S3_6+9_ATYTCITCR (UniProt Q969S3) | -0.218 | -0.141
ZNF687_Q8N1G0_860_CPSCPLLFAQK (UniProt Q8N1G0) | 0.0798 | 0.0741
ZNF224_Q9NZL3_132_EGDFPCQTEAGLSVIHTR (UniProt Q9NZL3) | 0.328 | 0.0536
ZMYM3_Q14202_1048_RLVLSESCSR (UniProt Q14202) | 0.0192 | 0.182
ZNF274_Q96GC6_565+568_VHSGERPFECQECGR (UniProt Q96GC6) | -0.218 | 0.155
ZMYM1_Q5SVZ6_532_EYQFCDGAVSDDLSIHSK (UniProt Q5SVZ6) | -0.52 | -0.546

2 records picked at random from the list so far:
Target | probe-labelled cysteine peptide fold change (10 µM) | probe-labelled cysteine peptide fold change (50 µM)
ZMYM1_Q5SVZ6_532_EYQFCDGAVSDDLSIHSK (UniProt Q5SVZ6) | -0.52 | -0.546
ZNF687_Q8N1G0_860_CPSCPLLFAQK (UniProt Q8N1G0) | 0.0798 | 0.0741

Further results:

Target | probe-labelled cysteine peptide fold change (10 µM) | probe-labelled cysteine peptide fold change (50 µM)
ZNF106_Q9H2Y7_1307_GNSGSEACTSSFLR (UniProt Q9H2Y7) | -0.174 | -0.413
ZKSCAN1_P17029_63_FCYQNTFGPR (UniProt P17029) | 0.0325 | -0.0499
ZNF326_Q5BKZ1_12_MDFEDDYTHSACR (UniProt Q5BKZ1) | -0.0724 | 0.758
ZNF292_O60281_1909_VNKPFVCQNQGCNYSAMTK (UniProt O60281) | -0.21 | -0.386
ZNF316_A6NFI3_861_CADCGR (UniProt A6NFI3) | 0.394 | 0.501
ZNF551_Q7Z340_340_HECGECR (UniProt Q7Z340) | 0.102 | 0.508
ZNF592_Q92610_175_HSDSYFPPPLGCGAVGGPVLEALAK (UniProt Q92610) | -0.00845 | -0.0644
ZNF622_Q969S3_69_GSATYCTVCSK (UniProt Q969S3) | 0.0399 | -0.0288
ZNF280C_Q8ND82_690_CDFLADSSGLDR (UniProt Q8ND82) | -0.015 | 0.1
ZNF706_Q9Y5V0_44_AALIYTCTVCR (UniProt Q9Y5V0) | 0.32 | 0.15
ZMYND11_Q15326_347_ACDELELHQR (UniProt Q15326) | -0.0244 | 0.143
ZNF326_Q5BKZ1_314+317_MAFTCSFCK (UniProt Q5BKZ1) | -0.145 | -0.401
ZNF512B_Q96KM6_774_AHLASCSK (UniProt Q96KM6) | 0.143 | -0.0282
ZFR_Q96KR1_5_MIPICPVVSFTYVPSR (UniProt Q96KR1) | 0.283 | 0.236
ZNF330_Q9Y3S2_132_CLSTHACACPLTDAECVECER (UniProt Q9Y3S2) | 0.0165 | 0.0302
ZFYVE16_Q7Z3T8_863_QPGVEGLCSK (UniProt Q7Z3T8) | -0.357 | -0.444
ZNF512_Q96ME7_192_HMENCK (UniProt Q96ME7) | -0.00733 | -0.186
ZNF644_Q9H582_1233_MDLTMHSALDCK (UniProt Q9H582) | -0.116 | -0.33
ZNF384_Q8TF68_408_CHNCHR (UniProt Q8TF68) | 0.0575 | 0.173
